The other results are listed elsewhere or left out. Shown are side measurements of this screen, not its main read-out; they come without a call. Most of these compounds were active or inconclusive in the main read-out, so they are no random draw. Words in brackets tell the shape of the fitted curve; partial curves, single points and poor fits give uncertain potencies.
Experiment: qHTS Assay for Lipid Storage Modulators in Drosophila S3 Cells;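 on cell number change: cells counted by Cell Tracker Red CMTPX staining in the red channel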
Conditions: BODIPY lipid droplet fluorescence, 18-24 h; for cell number change: measured here: cell count max response, cells fed with added oleic acid
Procedure, shortened: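 Drosophila S3 cells got compounds at several concentrations plus oleic acid (400 uM solution). Laser-scanning cytometry with 488 nm excitation read lipid droplets at 500-530 nm and cells at 575-640 nm. Percent activity was relative to 20 uM Triacsin C.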

[1] = measured here: lipid fluorescence (Fed channel) AC50, cells fed with added oleic acid
[2] = measured here: cell number channel AC50, cells fed with added oleic acid

Row | SMILES | cell number change [%] | AC50 [1] | AC50 [2]
1 | COc1ccc(CCNC(=O)C(=O)NCC2OCCN2C(=O)c2ccc(Cl)cc2)cc1OC (stereo not drawn) | 17.3 | 29.1 µM [rising, single point] | 
2 | COc1ccc(NC(=O)c2ccco2)c(NC(=O)c2ccc([N+](=O)[O-])cc2)c1 | 14.9 | 0.00411 µM [rising, full curve, poor fit] | 6.51 µM [rising, single point]
3 | Nc1cc(Cl)ccc1N1CCOCC1 | 18.1 |  | 
4 | CCOC(=O)CSc1nc2sc3c(c2c(=O)[nH]1)CC(C)(C)OC3 | 0.0566 | 0.411 µM [falling, partial curve, poor fit] | 
5 | Cc1ncc(N=Nc2ccccc2Cl)c(-c2ccccc2)n1 | -59.5 | 20.6 µM [falling, single point] | 25.9 µM [falling, partial curve]
6 | COc1ccc(C2=NOC(C(=O)NCc3ccccn3)C2)cc1 (stereo not drawn) |  | 3.26 µM [rising, partial curve] | 
7 | COc1ccc(NCc2nnc(-c3ccccc3)o2)cc1 | -1.47 | 1.84 µM [falling, partial curve] | 6.51 µM [rising, single point]
8 | CC(Oc1ccccc1)C(=O)NC1CCSc2ccccc21 (stereo not drawn) | -18.8 | 6.51 µM [falling, single point] | 
9 | CN(CC(=O)Nc1cccc(F)c1)C(=O)CSc1ccccc1F |  | 6.51 µM [rising, partial curve] | 
10 | O=C(O)c1nn(CCOc2cccc(Cl)c2)c(=O)c2ccccc12 | 18.2 |  | 
11 | COc1ccc(-c2nc(Cn3c(SCc4ccc(C)cc4)nc4ccncc43)c(C)o2)cc1OC | -15.6 | 29.1 µM [falling, single point] | 
12 | O=C(Nc1nc2ccccc2s1)C1CCCN1S(=O)(=O)c1ccc(Cl)cc1 (stereo not drawn) | -5.87 | 0.366 µM [rising, full curve, poor fit] | 
13 | COc1ccc(/C(C)=N/NC(=O)c2ccc(NS(=O)(=O)c3cccs3)cc2)cc1 | -22.6 |  | 
14 | Cn1cnc(S(=O)(=O)Nc2ccc3c(c2)OCCO3)c1 | 34.1 | 29.1 µM [rising, single point] | 29.1 µM [rising, single point]
15 | COc1cc(C)c(S(=O)(=O)NCc2cccs2)cc1C | -16.7 | 0.231 µM [rising, full curve] | 
16 | O=C(NCCc1ccccc1)C(=O)NCC1(c2ccccc2)CCCC1 |  | 14.6 µM [rising, partial curve] | 
17 | O=C(CN1C(=O)NC2(CCCCC2)C1=O)Nc1ccccc1N1CCCC1 | -28.1 | 0.291 µM [falling, full curve, poor fit] | 
18 | CN(C)c1nc(-c2ccc([N+](=O)[O-])cc2)cs1 | 48 |  | 23.1 µM [rising, single point]
19 | CC(=O)NC(CC(=O)NC12CC3CC(CC(C3)C1)C2)c1ccccc1 (stereo not drawn) | 70.8 | 6.51 µM [falling, partial curve, poor fit] | 16.4 µM [rising, single point]
20 | CCNC(=S)Nc1ccc(C)c(S(=O)(=O)Nc2ccccc2OC)c1 | 27.6 | 0.13 µM [rising, full curve, poor fit] | 

A few values from above.
cell number change [%] with `COc1ccc(/C(C)=N/NC(=O)c2ccc(NS(=O)(=O)c3cccs3)cc2)cc1` is entered as -22.6
AC50 [1] with `COc1ccc(NCc2nnc(-c3ccccc3)o2)cc1` is entered as 1.84 µM [falling, partial curve]

Remaining list, next part

Row | SMILES | cell number change [%] | AC50 [1] | AC50 [2]
21 | O=C(OCCCN=C1NS(=O)(=O)c2ccccc21)c1ccccc1F | 14.8 | 4.11 µM [falling, single point] | 
22 | O=C(O)c1ccc2c(c1)C(=O)N(c1cccc(S(=O)(=O)Nc3cccc(C(F)(F)F)c3)c1)C2=O | -84.8 | 0.00517 µM [falling, full curve, poor fit] | 
23 | C/C(=C\c1ccccc1)C(=O)Nc1nccs1 | 27 | 23.1 µM [rising, single point] | 
24 | O=S(=O)(c1ccc(F)cc1)N1CCc2ccccc21 | -21.5 |  | 2.91 µM [falling, single point]
25 | c1ccc(COC2CCCN(Cc3nc(Cc4ccccc4)no3)C2)cc1 (stereo not drawn) | -4.25 | 0.731 µM [falling, single point] | 
26 | CCOC(=O)C1=C(COC(=O)/C=C/c2ccc(O)c(OC)c2)NC(=O)NC1C (stereo not drawn) | -14.1 | 0.82 µM [falling, full curve, poor fit] | 
27 | Cc1cc(C(=O)NC2CC(C)(C)Cc3c2cnn3-c2ccccc2C)c(C)o1 (stereo not drawn) | -43.6 | 11.6 µM [falling, single point] | 29.1 µM [falling, single point]
28 | CCN(CC)C(=O)N(CC)Cc1ccccc1 | -7.32 |  | 
29 | CC/C(O)=C1\C(=O)CC(C)(C)CC1=NCCc1nc2ccccc2[nH]1 |  |  | 0.259 µM [rising, partial curve, poor fit]
30 | Cc1cc2nc(SCC(=O)O)nc(C)c2cc1C | 41.6 |  | 13 µM [rising, single point]
31 | Cc1cccc(N(C(=O)CS(=O)CC(=O)Nc2ccc3c(c2)OCO3)C(C)C(=O)NC2CCCC2)c1C (stereo not drawn) | -26.1 | 11.6 µM [falling, partial curve] | 
32 | CCCOC(=O)c1ccc(OCC(O)Cn2c(C)nc3ccccc32)cc1 (stereo not drawn) | -43.3 | 29.1 µM [falling, single point] | 
33 | Cc1ccc(S(=O)(=O)N2CCN(S(=O)(=O)c3ccccc3)C2c2ccc(N(C)C)cc2)cc1 (stereo not drawn) | 7.3 |  | 
34 | COc1cccc(/C=N/Nc2ncnc3scc(-c4ccccc4)c23)c1OC |  | 6.51 µM [rising, partial curve, poor fit] | 0.146 µM [rising, full curve, poor fit]
35 | CC(C)c1ccc(C2C(C(=O)c3ccco3)=C(O)C(=O)N2CC2CCCO2)cc1 (stereo not drawn) | 17.1 |  | 
36 | COc1cccc(/C=C2/Sc3ccc(C(=O)NCCN4CCCCCC4)cc3NC2=O)c1 | 4.78 | 0.00461 µM [rising, full curve] | 
37 | O=C(O)c1ccc2c3c(cccc13)C(=O)N(OS(=O)(=O)c1ccccc1)C2=O | 28.9 |  | 0.291 µM [rising, full curve, poor fit]
38 | Cc1ccc(Cn2nnc3c(=O)n(CC(=O)NCc4ccco4)cnc32)cc1 | -16.7 | 1.3 µM [falling, partial curve] | 
39 | O=C1C(Cl)=C(Nc2ccc(F)cc2)C(=O)N1CCc1ccccc1 | 70.7 | 25.9 µM [rising, single point] | 20.6 µM [rising, single point]
40 | CCOC(=O)CS(=O)(=O)c1ccc2ccccc2c1 | -5.1 | 3.26 µM [falling, single point] | 

Shown with tabs: part of the list above.
Row	SMILES	cell number change [%]	AC50 [1]	AC50 [2]
33	Cc1ccc(S(=O)(=O)N2CCN(S(=O)(=O)c3ccccc3)C2c2ccc(N(C)C)cc2)cc1 (stereo not drawn)	7.3		
34	COc1cccc(/C=N/Nc2ncnc3scc(-c4ccccc4)c23)c1OC		6.51 µM [rising, partial curve, poor fit]	0.146 µM [rising, full curve, poor fit]

Continued.

Row | SMILES | cell number change [%] | AC50 [1] | AC50 [2]
41 | O=C1CC(N2CCOCC2)C(=O)N1Cc1ccc(N2CCCC2=O)cc1 (stereo not drawn) | -5.42 |  | 
42 | O=C(NC1CCCC1)c1cc2c(=O)n3ccccc3nc2s1 | -2.2 | 0.82 µM [rising, partial curve] | 
43 | O=C(COC(=O)CCC(=O)c1ccc(F)cc1)Nc1cccc(S(=O)(=O)N2CCCC2)c1 | -9.17 | 18.4 µM [falling, single point] | 
44 | COCc1nn2c(N)c(-c3ccccc3)cnc2c1-c1ccccc1 | -0.985 | 2.59 µM [rising, full curve, poor fit] | 
45 | Cc1ccc(C(=O)Oc2oc(-c3ccccc3)nc2C=Nc2ccc(N(C)C)cc2)cc1 | -4.24 | 9.2 µM [rising, single point] | 
46 | CCC(C)NC(=O)COC(=O)c1ccc(Cl)cc1O (stereo not drawn) | -43.6 | 23.1 µM [falling, single point] | 29.1 µM [falling, single point]
47 | CN=c1scc(-c2ccc(F)cc2)n1/N=C/c1ccc(O)c(O)c1 | -38.3 | 29.1 µM [falling, single point] | 29.1 µM [falling, single point]
48 | O=C(O)CSc1cccc2cccc(C(=O)O)c12 | -100 |  | 18.4 µM [falling, single point]
49 | COc1cc2c(cc1NC(C)=O)CCCC2 | -4.41 | 29.1 µM [rising, single point] | 
50 | CO/N=C/NC(=O)Cc1cn(-c2ncc(C(F)(F)F)cc2Cl)c2ccccc12 | 13.7 | 3.26 µM [rising, partial curve] | 0.291 µM [rising, full curve, poor fit]
51 | CCN(CC)CCNc1nc(-c2ccc(OC)cc2)c(-c2ccc(OC)cc2)s1 | -23.8 | 29.1 µM [falling, single point] | 
52 | CCCCCN(C(=O)CCCSc1nncs1)c1c(N)n(CCCC)c(=O)[nH]c1=O | -50.3 | 0.411 µM [falling, full curve] | 0.92 µM [falling, full curve]
53 | CC(C)(C)c1cc(NCCCn2ccnc2)n2ncc(-c3ccccc3)c2n1 | -39 |  | 29.1 µM [falling, single point]
54 | O=C1CN(C(=O)COC(=O)/C=C/c2ccco2)c2ccccc2N1 | 21.5 |  | 
55 | COc1ccc(CNC(=O)C2CCCN(S(=O)(=O)N3CCC(C)CC3)C2)c(OC)c1 (stereo not drawn) | 46.6 |  | 11.6 µM [rising, partial curve]
56 | COc1cccc(-c2nn(-c3ccccc3)cc2/C=C\C(=O)c2cccs2)c1 | 2.88 | 25.9 µM [falling, partial curve, poor fit] | 
57 | CCc1ccc2[nH]c3nc(SCC(=O)NNC(=O)c4ccc(C(C)(C)C)cc4)nnc3c2c1 | -69.9 | 5.8 µM [rising, single point] | 2.91 µM [falling, partial curve]
58 | O=C(c1csc2ccccc12)N1CCN(c2ccc(Cl)c(Cl)c2)CC1 | 22.5 | 0.651 µM [rising, full curve, poor fit] | 
59 | CCOc1ccc(NC(=O)NNC(=O)c2cc3ccccc3cc2O)cc1 | 18.9 | 6.31 µM [rising, partial curve, poor fit] | 

Reference: PubChem BioAssay AID2685 (National Center for Advancing Translational Sciences (NCATS), 2010)
